The other results are listed elsewhere or left out.
Assays:
Assay in all cases: log2 fold change, soluble protein after heating vs DMSO (PISA); higher = thermal stabilisation; K562 lysate, 10 uM; active = over 0.2 and 3.5 SD of the protein, either way, in both replicates (recomputed)
crizotinib = compound: C[C@@H](Oc1cc(-c2cnn(C3CCNCC3)c2)cnc1N)c1c(Cl)ccc(F)c1Cl [crizotinib]
Procedure, shortened: (§1)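 Log-two fold change in thermal stability relative to solvent controls is reported from duplicates. For each sample, crude K562 extract from dounce-homogenised pellets in PBS pH 7.4 with 1 mM MgCl2, at 1 mg/mL protein, was treated with 10 μM compound for 30 min. Aliquots heated for 3 min across 48°C-58°C were pooled, brought to 0.5% NP-40 at 4°C and cleared at 21,000xg for 90 min. The supernatant was quantified by TMTpro 16plex LC-MS/MS with channel sums equalised.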

Sequences of proteins named here, by UniProt entry; tags and fusion partners are left off. A change or cut given only in a name is not applied to a line headed by its entry.
UniProt Q9NRZ9: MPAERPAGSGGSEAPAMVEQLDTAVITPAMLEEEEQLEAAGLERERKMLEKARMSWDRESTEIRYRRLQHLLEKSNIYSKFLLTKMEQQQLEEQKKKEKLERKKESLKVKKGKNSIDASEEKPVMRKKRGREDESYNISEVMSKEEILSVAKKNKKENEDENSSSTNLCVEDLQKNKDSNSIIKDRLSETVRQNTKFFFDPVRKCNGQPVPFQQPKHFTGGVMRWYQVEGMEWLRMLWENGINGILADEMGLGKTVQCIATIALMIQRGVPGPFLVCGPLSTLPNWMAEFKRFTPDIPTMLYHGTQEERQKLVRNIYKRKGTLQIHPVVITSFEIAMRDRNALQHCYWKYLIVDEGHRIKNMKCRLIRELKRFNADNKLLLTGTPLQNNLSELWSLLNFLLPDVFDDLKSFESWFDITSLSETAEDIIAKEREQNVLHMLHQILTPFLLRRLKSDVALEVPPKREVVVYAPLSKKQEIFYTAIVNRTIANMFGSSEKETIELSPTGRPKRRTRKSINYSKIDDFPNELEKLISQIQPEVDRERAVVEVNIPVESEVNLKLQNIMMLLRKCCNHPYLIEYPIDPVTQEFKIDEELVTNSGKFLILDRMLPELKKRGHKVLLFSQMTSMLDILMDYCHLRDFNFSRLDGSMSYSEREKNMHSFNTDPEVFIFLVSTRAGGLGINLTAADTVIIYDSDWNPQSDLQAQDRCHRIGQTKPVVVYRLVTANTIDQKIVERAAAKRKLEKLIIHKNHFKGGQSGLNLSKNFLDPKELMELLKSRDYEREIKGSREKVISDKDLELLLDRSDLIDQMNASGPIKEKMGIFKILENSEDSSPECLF
UniProt Q9UGU5: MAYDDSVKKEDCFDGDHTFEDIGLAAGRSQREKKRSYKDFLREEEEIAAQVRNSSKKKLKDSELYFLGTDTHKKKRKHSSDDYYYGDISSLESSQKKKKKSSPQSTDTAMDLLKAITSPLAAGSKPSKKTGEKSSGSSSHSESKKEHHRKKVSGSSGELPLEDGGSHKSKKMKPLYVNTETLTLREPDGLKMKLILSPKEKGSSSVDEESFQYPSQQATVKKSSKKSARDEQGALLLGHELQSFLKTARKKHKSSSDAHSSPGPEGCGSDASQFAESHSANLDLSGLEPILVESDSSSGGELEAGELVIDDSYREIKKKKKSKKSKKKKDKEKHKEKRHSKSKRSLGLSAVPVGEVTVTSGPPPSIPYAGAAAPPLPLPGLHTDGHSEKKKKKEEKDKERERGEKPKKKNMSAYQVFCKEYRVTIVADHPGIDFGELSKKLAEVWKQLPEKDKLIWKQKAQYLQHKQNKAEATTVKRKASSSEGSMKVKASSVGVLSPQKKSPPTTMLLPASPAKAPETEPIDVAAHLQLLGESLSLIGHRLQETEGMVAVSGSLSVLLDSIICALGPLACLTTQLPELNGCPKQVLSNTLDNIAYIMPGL
UniProt Q969F9: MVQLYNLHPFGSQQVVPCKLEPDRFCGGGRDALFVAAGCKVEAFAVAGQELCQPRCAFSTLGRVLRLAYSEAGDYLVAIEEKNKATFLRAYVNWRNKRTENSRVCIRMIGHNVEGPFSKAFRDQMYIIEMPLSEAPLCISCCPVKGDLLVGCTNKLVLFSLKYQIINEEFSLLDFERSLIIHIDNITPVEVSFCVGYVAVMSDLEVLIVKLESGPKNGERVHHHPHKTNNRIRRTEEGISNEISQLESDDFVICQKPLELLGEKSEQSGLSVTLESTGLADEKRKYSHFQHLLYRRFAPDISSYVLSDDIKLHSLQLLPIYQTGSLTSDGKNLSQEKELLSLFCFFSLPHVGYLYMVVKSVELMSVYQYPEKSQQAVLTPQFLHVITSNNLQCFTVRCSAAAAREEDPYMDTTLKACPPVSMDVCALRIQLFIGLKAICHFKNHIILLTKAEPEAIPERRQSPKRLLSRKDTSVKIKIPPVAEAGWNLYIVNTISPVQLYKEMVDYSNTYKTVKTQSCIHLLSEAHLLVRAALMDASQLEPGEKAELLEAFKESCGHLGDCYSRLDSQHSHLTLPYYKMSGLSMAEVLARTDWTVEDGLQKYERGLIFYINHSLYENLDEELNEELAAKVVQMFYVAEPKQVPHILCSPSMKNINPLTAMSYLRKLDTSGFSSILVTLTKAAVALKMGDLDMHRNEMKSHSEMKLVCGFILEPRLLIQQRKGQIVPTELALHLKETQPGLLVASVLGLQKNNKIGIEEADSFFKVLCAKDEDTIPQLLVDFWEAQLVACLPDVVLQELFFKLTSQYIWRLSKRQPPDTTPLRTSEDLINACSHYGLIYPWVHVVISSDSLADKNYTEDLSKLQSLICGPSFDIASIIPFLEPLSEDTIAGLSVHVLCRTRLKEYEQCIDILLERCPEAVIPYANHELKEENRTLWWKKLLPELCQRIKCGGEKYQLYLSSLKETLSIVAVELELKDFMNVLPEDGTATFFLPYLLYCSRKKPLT
UniProt Q9P2P5: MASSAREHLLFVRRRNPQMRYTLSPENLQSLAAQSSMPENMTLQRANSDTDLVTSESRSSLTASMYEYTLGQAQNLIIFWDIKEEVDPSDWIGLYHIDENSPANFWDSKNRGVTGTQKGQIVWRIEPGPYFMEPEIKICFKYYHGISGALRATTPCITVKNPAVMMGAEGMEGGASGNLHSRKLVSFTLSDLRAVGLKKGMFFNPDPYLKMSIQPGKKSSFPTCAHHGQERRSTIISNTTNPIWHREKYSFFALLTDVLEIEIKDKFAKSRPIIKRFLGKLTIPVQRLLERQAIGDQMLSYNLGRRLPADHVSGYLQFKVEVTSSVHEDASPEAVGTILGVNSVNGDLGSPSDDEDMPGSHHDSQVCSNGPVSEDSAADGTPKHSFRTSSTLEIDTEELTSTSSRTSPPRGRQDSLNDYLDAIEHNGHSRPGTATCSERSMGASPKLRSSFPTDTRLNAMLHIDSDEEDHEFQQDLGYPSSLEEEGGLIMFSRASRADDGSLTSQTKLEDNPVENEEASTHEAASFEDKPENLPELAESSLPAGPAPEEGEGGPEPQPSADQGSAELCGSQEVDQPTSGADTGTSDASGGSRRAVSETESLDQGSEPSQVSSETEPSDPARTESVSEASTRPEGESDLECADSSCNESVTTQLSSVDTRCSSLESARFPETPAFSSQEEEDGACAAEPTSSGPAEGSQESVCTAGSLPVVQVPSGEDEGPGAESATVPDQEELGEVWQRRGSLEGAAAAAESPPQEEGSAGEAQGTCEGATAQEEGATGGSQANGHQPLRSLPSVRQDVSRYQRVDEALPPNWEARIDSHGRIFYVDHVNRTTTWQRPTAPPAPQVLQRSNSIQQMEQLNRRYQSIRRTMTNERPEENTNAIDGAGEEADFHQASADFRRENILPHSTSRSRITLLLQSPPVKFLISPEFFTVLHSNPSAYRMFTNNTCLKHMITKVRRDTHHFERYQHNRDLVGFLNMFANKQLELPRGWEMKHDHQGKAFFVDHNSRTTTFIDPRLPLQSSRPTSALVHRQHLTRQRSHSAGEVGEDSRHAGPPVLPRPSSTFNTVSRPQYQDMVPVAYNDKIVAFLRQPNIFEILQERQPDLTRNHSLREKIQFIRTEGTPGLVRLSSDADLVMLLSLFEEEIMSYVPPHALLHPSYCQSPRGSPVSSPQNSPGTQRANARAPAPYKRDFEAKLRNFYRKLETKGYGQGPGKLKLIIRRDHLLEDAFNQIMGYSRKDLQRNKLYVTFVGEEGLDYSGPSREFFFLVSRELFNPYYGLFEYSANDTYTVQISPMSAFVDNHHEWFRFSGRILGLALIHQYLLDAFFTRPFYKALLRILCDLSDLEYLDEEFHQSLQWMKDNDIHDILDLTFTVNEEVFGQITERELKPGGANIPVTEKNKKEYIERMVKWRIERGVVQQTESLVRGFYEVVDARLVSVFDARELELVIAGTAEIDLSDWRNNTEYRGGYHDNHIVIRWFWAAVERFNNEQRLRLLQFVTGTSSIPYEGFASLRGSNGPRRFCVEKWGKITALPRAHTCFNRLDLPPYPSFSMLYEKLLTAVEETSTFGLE
UniProt P14210, whole entry, looked up: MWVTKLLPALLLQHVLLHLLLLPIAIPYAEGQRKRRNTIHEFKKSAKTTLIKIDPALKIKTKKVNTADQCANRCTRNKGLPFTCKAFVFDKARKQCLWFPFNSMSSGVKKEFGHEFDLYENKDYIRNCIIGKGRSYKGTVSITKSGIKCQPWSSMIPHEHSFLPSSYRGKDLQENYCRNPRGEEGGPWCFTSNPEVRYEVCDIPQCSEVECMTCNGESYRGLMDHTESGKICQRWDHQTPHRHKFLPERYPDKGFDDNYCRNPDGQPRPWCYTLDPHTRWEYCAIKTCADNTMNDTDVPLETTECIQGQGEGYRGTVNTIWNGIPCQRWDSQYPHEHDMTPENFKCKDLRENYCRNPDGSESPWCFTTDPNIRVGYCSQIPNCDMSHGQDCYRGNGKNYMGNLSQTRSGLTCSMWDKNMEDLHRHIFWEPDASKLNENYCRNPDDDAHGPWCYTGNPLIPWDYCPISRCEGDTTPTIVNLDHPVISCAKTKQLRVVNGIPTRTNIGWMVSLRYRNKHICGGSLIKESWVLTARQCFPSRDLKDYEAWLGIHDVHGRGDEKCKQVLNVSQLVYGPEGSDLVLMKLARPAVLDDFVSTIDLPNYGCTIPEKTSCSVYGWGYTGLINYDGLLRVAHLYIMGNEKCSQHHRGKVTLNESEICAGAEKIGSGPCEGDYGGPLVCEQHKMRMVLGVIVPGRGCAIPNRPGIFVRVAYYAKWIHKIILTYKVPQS
UniProt Q86YV9: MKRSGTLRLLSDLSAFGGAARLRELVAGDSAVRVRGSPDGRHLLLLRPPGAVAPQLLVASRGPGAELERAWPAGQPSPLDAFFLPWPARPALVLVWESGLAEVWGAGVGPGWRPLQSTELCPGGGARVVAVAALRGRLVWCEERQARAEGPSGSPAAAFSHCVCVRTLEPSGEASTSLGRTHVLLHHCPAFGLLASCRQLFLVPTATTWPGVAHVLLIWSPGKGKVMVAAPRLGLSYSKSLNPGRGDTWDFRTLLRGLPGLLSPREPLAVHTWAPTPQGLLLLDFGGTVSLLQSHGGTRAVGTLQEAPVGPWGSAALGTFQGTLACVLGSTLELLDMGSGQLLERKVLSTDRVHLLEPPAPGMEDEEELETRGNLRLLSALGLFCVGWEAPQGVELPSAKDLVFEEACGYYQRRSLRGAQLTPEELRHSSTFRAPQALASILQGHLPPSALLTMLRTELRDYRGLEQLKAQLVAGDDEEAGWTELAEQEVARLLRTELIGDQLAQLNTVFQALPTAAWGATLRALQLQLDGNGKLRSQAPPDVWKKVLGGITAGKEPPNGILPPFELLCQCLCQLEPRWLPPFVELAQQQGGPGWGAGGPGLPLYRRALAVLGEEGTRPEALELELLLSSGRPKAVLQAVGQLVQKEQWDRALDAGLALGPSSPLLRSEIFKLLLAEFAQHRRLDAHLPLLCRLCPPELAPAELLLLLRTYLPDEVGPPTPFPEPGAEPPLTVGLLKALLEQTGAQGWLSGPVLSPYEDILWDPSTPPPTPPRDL
UniProt O60243: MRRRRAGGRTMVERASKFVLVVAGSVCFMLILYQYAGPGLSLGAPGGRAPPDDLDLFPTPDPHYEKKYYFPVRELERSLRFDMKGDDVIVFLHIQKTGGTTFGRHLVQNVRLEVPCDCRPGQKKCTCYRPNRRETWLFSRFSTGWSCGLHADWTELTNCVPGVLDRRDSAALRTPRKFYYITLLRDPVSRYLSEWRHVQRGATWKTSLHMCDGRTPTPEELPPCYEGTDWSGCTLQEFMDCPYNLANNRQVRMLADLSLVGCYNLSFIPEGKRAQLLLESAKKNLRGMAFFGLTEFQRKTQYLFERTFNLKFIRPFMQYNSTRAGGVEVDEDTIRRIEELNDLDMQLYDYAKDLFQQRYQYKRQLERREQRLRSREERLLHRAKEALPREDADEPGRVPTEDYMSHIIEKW
UniProt P00738: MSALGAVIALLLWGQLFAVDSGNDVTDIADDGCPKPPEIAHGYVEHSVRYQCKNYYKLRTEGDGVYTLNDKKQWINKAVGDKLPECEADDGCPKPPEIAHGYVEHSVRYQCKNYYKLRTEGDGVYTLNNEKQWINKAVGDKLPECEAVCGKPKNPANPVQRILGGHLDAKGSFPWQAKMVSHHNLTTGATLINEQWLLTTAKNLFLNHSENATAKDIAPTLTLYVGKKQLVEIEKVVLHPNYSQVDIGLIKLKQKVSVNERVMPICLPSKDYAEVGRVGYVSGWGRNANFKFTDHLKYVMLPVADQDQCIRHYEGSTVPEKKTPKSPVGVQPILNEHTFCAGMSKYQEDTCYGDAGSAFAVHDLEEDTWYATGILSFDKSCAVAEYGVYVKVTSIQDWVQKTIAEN
UniProt Q9BW72: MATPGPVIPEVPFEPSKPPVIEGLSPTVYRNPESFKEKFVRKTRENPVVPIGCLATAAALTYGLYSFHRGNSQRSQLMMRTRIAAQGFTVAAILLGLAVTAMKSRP

duvelisib = compound: C[C@H](Nc1ncnc2nc[nH]c12)c1cc2cccc(Cl)c2c(=O)n1-c1ccccc1 [duvelisib]
Procedure, shortened: as §1

tozasertib = compound: Cc1cc(Nc2cc(N3CCN(C)CC3)nc(Sc3ccc(NC(=O)C4CC4)cc3)n2)n[nH]1 [tozasertib]
Procedure, shortened: as §1

doramapimod = compound: Cc1ccc(-n2nc(C(C)(C)C)cc2NC(=O)Nc2ccc(OCCN3CCOCC3)c3ccccc23)cc1 [doramapimod]
Procedure, shortened: as §1

nilotinib = compound: Cc1cn(-c2cc(NC(=O)c3ccc(C)c(Nc4nccc(-c5cccnc5)n4)c3)cc(C(F)(F)F)c2)cn1 [nilotinib]
Procedure, shortened: as §1

[1] = compound: Cc1nc(Nc2n[nH]c3c2CN(C(=O)N[C@H](CN(C)C)c2ccccc2)C3(C)C)c2sccc2n1
Procedure, shortened: as §1

dasatinib = compound: Cc1nc(Nc2ncc(C(=O)Nc3c(C)cccc3Cl)s2)cc(N2CCN(CCO)CC2)n1 [dasatinib]
Procedure, shortened: as §1

[2] = compound: Cc1ncc(-c2ccnc(Nc3ccc(S(C)(=O)=O)cc3)n2)n1C(C)C
Procedure, shortened: as §1

[3] = compound: Cn1cc(-c2ccc3c(c2)CCN3C(=O)Cc2cccc(C(F)(F)F)c2)c2c(N)ncnc21
Procedure, shortened: as §1

quisinostat = compound: Cn1cc(CNCC2CCN(c3ncc(C(=O)NO)cn3)CC2)c2ccccc21 [quisinostat]
Procedure, shortened: as §1

tipifarnib = compound: Cn1cncc1[C@@](N)(c1ccc(Cl)cc1)c1ccc2c(c1)c(-c1cccc(Cl)c1)cc(=O)n2C [tipifarnib]
Procedure, shortened: as §1

[4] = compound: NC(=O)Nc1cc(-c2cccc(F)c2)sc1C(=O)N[C@H]1CCCNC1
Procedure, shortened: as §1

[5] = compound: NC1(c2ccc(-c3nc4ccn5c(=O)[nH]nc5c4cc3-c3ccccc3)cc2)CCC1
Procedure, shortened: as §1

[6] = compound: C[C@H](C1=CC=C(C=C1)C(=O)NC2=C3C=CNC3=NC=C2)N
Procedure, shortened: as §1

gandotinib = compound: Cc1cc(Nc2cc(CN3CCOCC3)c3nc(C)c(Cc4ccc(Cl)cc4F)n3n2)n[nH]1 [gandotinib]
Procedure, shortened: as §1

[7] = compound: Cc1cccc(CC(=O)N2CCc3c2ccc(-c2cn(C)c4ncnc(N)c24)c3F)n1
Procedure, shortened: as §1

pictilisib = compound: CS(=O)(=O)N1CCN(Cc2cc3nc(-c4cccc5[nH]ncc45)nc(N4CCOCC4)c3s2)CC1 [pictilisib]
Procedure, shortened: as §1

bafetinib = compound: Cc1ccc(NC(=O)c2ccc(CN3CC[C@H](N(C)C)C3)c(C(F)(F)F)c2)cc1Nc1nccc(-c2cncnc2)n1 [bafetinib]
Procedure, shortened: as §1

HELLS (UniProt Q9NRZ9)
log2 fold change (crizotinib): inactive: 0.117
log2 fold change (duvelisib): inactive: 0.027
log2 fold change (tozasertib): inactive: -0.112
log2 fold change (doramapimod): inactive: 0.116
log2 fold change (nilotinib): inactive: -0.076
log2 fold change [1]: inactive: 0.049
log2 fold change (dasatinib): inactive: -0.018
log2 fold change [2]: inactive: 0.034
log2 fold change [3]: inactive: 0.19
log2 fold change (quisinostat): inactive: 0
log2 fold change (tipifarnib): inactive: 0.01
log2 fold change [4]: inactive: -0.018
log2 fold change [5]: inactive: -0.063

HMGCR isoform 3 (UniProt P04035)
log2 fold change (crizotinib): inactive: -0.248
log2 fold change (tozasertib): inactive: 0.131
log2 fold change (doramapimod): inactive: 0.093
log2 fold change (quisinostat): inactive: -0.151
log2 fold change [4]: inactive: 0.137

HMGXB4 (UniProt Q9UGU5)
log2 fold change (tozasertib): inactive: -0.051
log2 fold change [5]: inactive: -0.339

HPS3 (UniProt Q969F9)
log2 fold change (crizotinib): inactive: -0.07
log2 fold change [6]: inactive: 0.016
log2 fold change (duvelisib): inactive: 0.059
log2 fold change (gandotinib): inactive: -0.163
log2 fold change (tozasertib): inactive: -0.061
log2 fold change (doramapimod): inactive: -0.129
log2 fold change [7]: inactive: 0.053
log2 fold change (nilotinib): inactive: 0.022
log2 fold change [1]: inactive: -0.031
log2 fold change (dasatinib): inactive: -0.03
log2 fold change [2]: inactive: -0.004
log2 fold change [3]: inactive: 0.02
log2 fold change (quisinostat): inactive: -0.085
log2 fold change (tipifarnib): inactive: -0.052
log2 fold change [4]: inactive: -0.069
log2 fold change [5]: inactive: -0.012

HECW2 (UniProt Q9P2P5)
log2 fold change (crizotinib): inactive: -0.075
log2 fold change (duvelisib): inactive: -0.088
log2 fold change (tozasertib): inactive: 0.165
log2 fold change (doramapimod): inactive: 0.24
log2 fold change (nilotinib): inactive: -0.147
log2 fold change [1]: inactive: 0.021
log2 fold change (dasatinib): inactive: -0.031
log2 fold change [2]: inactive: -0.092
log2 fold change [3]: inactive: -0.103
log2 fold change (quisinostat): active: -0.513
log2 fold change (tipifarnib): inactive: -0.041
log2 fold change [4]: inactive: -0.035
log2 fold change [5]: inactive: 0.126

HGF (UniProt P14210)
log2 fold change (crizotinib): inactive: 0.05
log2 fold change [6]: inactive: -0.002
log2 fold change (gandotinib): inactive: -0.052
log2 fold change (doramapimod): inactive: 0.037
log2 fold change [7]: inactive: 0.048
log2 fold change (quisinostat): inactive: -0.222
log2 fold change [4]: inactive: 0
log2 fold change [5]: inactive: 0.05

HMCN1 (UniProt Q96RW7)
log2 fold change (pictilisib): inactive: -0.022
log2 fold change [6]: inactive: 0.274
log2 fold change (gandotinib): inactive: -0.241
log2 fold change (bafetinib): inactive: 0.077
log2 fold change [7]: inactive: -0.371
log2 fold change (nilotinib): inactive: 0.028
log2 fold change [1]: inactive: 0.18
log2 fold change [2]: inactive: 0.055
log2 fold change (tipifarnib): inactive: -0.197

HLA-DRA
log2 fold change (tozasertib): inactive: 0.056

HNRNPM (UniProt M0QZM1)
log2 fold change (pictilisib): inactive: 0.076
log2 fold change (crizotinib): inactive: -0.07
log2 fold change (duvelisib): inactive: -0.06
log2 fold change (tozasertib): inactive: 0.075
log2 fold change (doramapimod): inactive: -0.017
log2 fold change (bafetinib): inactive: -0.243
log2 fold change (dasatinib): inactive: -0.022
log2 fold change [3]: inactive: -0.163
log2 fold change (quisinostat): inactive: 0
log2 fold change [4]: inactive: -0.012

HPS6 (UniProt Q86YV9)
log2 fold change (crizotinib): inactive: 0.17
log2 fold change [6]: inactive: 0.015
log2 fold change (duvelisib): inactive: 0.057
log2 fold change (gandotinib): inactive: -0.054
log2 fold change (tozasertib): inactive: -0.066
log2 fold change (doramapimod): inactive: -0.095
log2 fold change [7]: inactive: 0.059
log2 fold change (nilotinib): inactive: 0.019
log2 fold change [1]: inactive: 0.02
log2 fold change (dasatinib): inactive: -0.216
log2 fold change [2]: inactive: 0.049
log2 fold change [3]: inactive: 0.01
log2 fold change (quisinostat): inactive: 0.15
log2 fold change (tipifarnib): inactive: -0.002
log2 fold change [4]: inactive: 0.084

HS6ST1 (UniProt O60243)
log2 fold change [5]: inactive: -0.19

HP (UniProt P00738)
log2 fold change [6]: inactive: 0.483
log2 fold change (duvelisib): inactive: -0.023
log2 fold change (gandotinib): inactive: -0.33
log2 fold change [7]: inactive: 0.614
log2 fold change (dasatinib): inactive: -0.094
log2 fold change [3]: inactive: 0.403

HELZ2 (UniProt Q9BYK8)
log2 fold change (crizotinib): inactive: -0.01
log2 fold change (doramapimod): inactive: 0.008
log2 fold change (nilotinib): inactive: 0.204
log2 fold change [1]: inactive: 0.145
log2 fold change [2]: inactive: 0.062
log2 fold change (quisinostat): inactive: -0.094
log2 fold change (tipifarnib): inactive: 0.127
log2 fold change [4]: inactive: 0.092
log2 fold change [5]: inactive: -0.046

HMGXB3 (UniProt Q12766)
log2 fold change (tozasertib): inactive: 0.081

HIGD2A (UniProt Q9BW72)
log2 fold change (crizotinib): inactive: -0.208
log2 fold change [6]: inactive: -0.037
log2 fold change (duvelisib): inactive: 0.035
log2 fold change (gandotinib): inactive: 0.05
log2 fold change (doramapimod): inactive: -0.137
log2 fold change [7]: inactive: -0.004
log2 fold change (nilotinib): inactive: 0.22
log2 fold change [1]: inactive: -0.149
log2 fold change (dasatinib): inactive: 0.138
log2 fold change [2]: inactive: -0.116
log2 fold change [3]: inactive: 0.028
log2 fold change (quisinostat): inactive: -0.659
log2 fold change (tipifarnib): inactive: 0.003
log2 fold change [4]: inactive: 0.258

Reference: the supplement of paper PMC10849652
